# Experimental data from patent US8642597B2, “Pyrazole compounds for controlling invertebrate pests” (BASF SE, priority 2007, dated 2014).
# Some results were stated once for a whole list of compounds, not compound by compound.
# Legend:
# Format in all cases: in vivo
# [1] = system: Southern Armyworm (spodoptera eridania, 2nd instar larvae); test: Southern armyworm (spodoptera eridania, 2nd instar larvae), lima bean leaf dip test; details: 300 ppm; at 4 days; in comparison with untreated controls
# Procedure: (§1) The active compounds were formulated in 50:50 (vol:vol) acetone:water and 100 ppm Kinetica™ surfactant.
# A pair of first true leaves of Sieva lima bean was dipped in the test solution and allowed to dry. The leaf was then placed in a plastic perforated zip enclosure bag and ten 2nd instar larvae were added. At 4 days, observations were made of mortality and reduced feeding.
# [2] = system: Silverleaf Whitefly (bemisia argentifolii, adult); test: Silverleaf whitefly (bemisia argentifolii, adult), cotton cotyledon dip test; details: 300 ppm; 3 days after treatment; in comparison with untreated controls
# Procedure: as §1
# Selected cotton plants were grown to the cotyledon state (one plant per pot). The cotyledons were dipped into the test solution to provide complete coverage of the foliage and placed in a well-vented area to dry. Each pot with treated seedling was placed in a plastic cup and 10 to 12 whitefly adults (approximately 3-5 day old) were introduced. The insects were collected using an aspirator and an 0.6 cm, non-toxic Tygon® tubing (R-3603) connected to a barrier pipette tip. The tip, containing the collected insects, was then gently inserted into the soil containing the treated plant, allowing insects to crawl out of the tip to reach the foliage for feeding. The cups were covered with a reusable screened lid (150 micron mesh polyester screen PeCap from Tetko Inc). Test plants were maintained in the holding room at about 25° C. and 20-40% relative humidity for 3 days avoiding direct exposure to the fluorescent light (24 hour photoperiod) to prevent trapping of heat inside the cup. Mortality was assessed 3 days after treatment of the plants.
# [3] = system: Cotton Aphid (aphis gossypii, Mixed Life Stages); test: Cotton aphid (aphis gossypii, mixed life stages), cotyledon dip test; details: 300 ppm; mortality counts after 5 days; in comparison with untreated controls
# Excerpt: as §1
# Cotton plants at the cotyledon stage (one plant per pot) were infested by placing a heavily infested leaf from the main colony on top of each cotyledon. The aphids were allowed to transfer to the host plant overnight, and the leaf used to transfer the aphids was removed. The cotyledons were dipped in the test solution and allowed to dry. After 5 days, mortality counts were made.
# [4] = system: Green Peach Aphid (Myzus persicae, Mixed Life Stages); test: Green peach aphid (Myzus persicae, mixed life stages), pepper leaf dip test; details: 300 ppm; after 5 days; in comparison with untreated controls
# Excerpt: as §1
# Pepper plants in the 2nd leaf-pair stage (variety ‘California Wonder’) were infested with approximately 40 laboratory-reared aphids by placing infested leaf sections on top of the test plants. The leaf sections were removed after 24 hr. The leaves of the intact plants were dipped into gradient solutions of the test compound and allowed to dry. Test plants were maintained under fluorescent light (24 hour photoperiod) at about 25° C. and 20-40% relative humidity. Aphid mortality on the treated plants, relative to mortality on check plants, was determined after 5 days.
# [5] = system: Vetch Aphid (Megoura viciae); test: Vetch aphid (Megoura viciae), bean leaf disk microtiterplate test; details: concentration of the test solution 2500 mg/L; 6 days
# Procedure: The active compounds were formulated in 1:3 (vol:vol) DMSO:water with different concentrations of formulated compounds.
# Bean leaf disks were placed into microtiterplates filled with 0.8% agar-agar and 2.5 ppm OPUS™. The leaf disks were sprayed with 2.5 μl of the test solution and 5 to 8 adult aphids were placed into the microtiterplates which were then closed and kept at 23±1° C. and 50±5% relative humidity under fluorescent light for 6 days. Mortality was assessed on the basis of vital, reproduced aphids. Aphid mortality and fecundity was then visually assessed.
# Bean Aphid (Aphis fabae) = test: Bean aphid (Aphis fabae), nasturtium plant dip test; details: 10 ppm; after 3 days; in comparison with untreated controls
# Excerpt: as §1
# Nasturtium plants grown in Metro mix in the 1st leaf-pair stage (variety ‘Mixed Jewel’) were infested with approximately 2-30 laboratory-reared aphids by placing infested cut plants on top of the test plants. The cut plants were removed after 24 hr. Each plant was dipped into the test solution to provide complete coverage of the foliage, stem, protruding seed surface and surrounding cube surface and allowed to dry in the fume hood. The treated plants were kept at about 25° C. with continuous fluorescent light. Aphid mortality is determined after 3 days.
# [6] = system: Boll Weevil (Anthonomus grandis); test: Boll weevil (Anthonomus grandis), insect diet microtiter plate test; details: concentration of the test solution 2500 mg/L; egg and larval mortality after 5 days
# Procedure: The compounds were formulated in 75:25 (vol:vol) water:DMSO.
# For evaluating control of boll weevil (Anthonomus grandis) the test unit consisted of 24-well-microtiter plates containing an insect diet and 20-30 A. grandis eggs. Different concentrations of formulated compounds were sprayed onto the insect diet at 20 μl, using a custom built micro atomizer, at two replications. After application, the microtiter plates were incubated at 23±1° C. and 50±5% relative humidity for 5 days. Egg and larval mortality was then visually assessed.
# [7] = system: Brown Planthopper (nilaparvata lugens); test: Brown planthopper (nilaparvata lugens), rice seedling spray test; details: 300 ppm; after 72 hours; in comparison with untreated controls
# Procedure: The active compounds were formulated as a 50:50 (vol:vol) acetone:water solution. Surfactant (Alkamuls EL 620) was added at the rate of 0.1% (vol/vol).
# Rice seedlings were cleaned and washed 24 h before spraying. Potted rice seedlings were sprayed with 5 ml test solution, air dried, placed in cages and inoculated with 10 adults. Treated rice plants were kept at 28-29° C. and relative humidity of 50-60%. Percent mortality was recorded after 72 hours.
# [8] = system: Cowpea Aphid (aphis craccivora); test: Cowpea aphid (aphis craccivora), spray on potted cowpea plants; details: 300 ppm; population reduction assessed after 24, 72 and 120 hours; in comparison with untreated controls
# Procedure: The active compounds were formulated in 50:50 (vol:vol) acetone:water. The test solution was prepared at the day of use.
# Potted cowpea plants colonized with 100-150 aphids of various stages were sprayed after the pest population had been recorded. Population reduction was assessed after 24, 72, and 120 hours.
# [9] = system: Mediterranean Fruitfly (Ceratitis capitata); test: Activity against Mediterranean fruitfly (Ceratitis capitata), insect diet microtiter plate test; details: eggs treated with 2500 ppm; egg and larval mortality after 5 days
# Procedure: The active compounds were formulated in 1:3 (vol:vol) DMSO:water.
# For evaluating control of Mediterranean fruitfly the test unit consisted of microtiter plates containing an insect diet and 50 to 80 C. capitata eggs.
# Different concentrations of formulated compounds were sprayed onto the insect diet at 5 μl, using a custom built micro atomizer, at two replications. After application, microtiter plates were incubated at 28±1° C. and 80±5% relative humidity for 5 days. Egg and larval mortality was then visually assessed.
SMILES,mortality [1],mortality [2],mortality [3],mortality [4],mortality [5],mortality (Bean Aphid (Aphis fabae)),mortality [6],mortality [7],mortality [8],mortality [9] [%]
CN(C(=O)c1cnn(CC(F)(F)F)c1C(F)(F)F)c1cccnc1 [Compound 48],at least 50%,at least 50%,at least 75%,at least 50%,–,–,–,–,–,–
Cn1cc(C(=O)Nc2cccnc2)c(C(F)F)n1 [Compound 14],–,–,–,–,at least 80%,at least 90%,at least 50%,–,–,–
CN(C(=O)c1cnn(CC(F)(F)F)c1C(F)F)c1cccnc1 [Compound 176],–,–,–,–,–,–,–,at least 50%,–,–
CN(C(=O)c1cnn(C)c1C(F)F)c1cccnc1 [Compound 36],–,–,at least 75%,at least 50%,–,–,–,at least 50%,at least 75%,–
Cn1nc(C(C)(C)C)cc1C(=O)Nc1cccnc1 [Compound 62],–,at least 50%,at least 75%,at least 50%,at least 80%,–,100%,–,at least 75%,50
Cn1ncc(C(=O)Nc2cccnc2)c1C(F)F [Compound 20],–,–,–,–,–,at least 90%,at least 50%,–,–,–
CC(C)c1cn(C)nc1C(=O)Nc1cccnc1 [Compound 65],–,–,at least 75%,at least 50%,at least 80%,–,100%,at least 50%,at least 75%,–
CCn1ncc(C(=O)Nc2cccnc2)c1C(F)(F)F [Compound 18],–,at least 50%,at least 75%,at least 50%,at least 80%,at least 90%,–,–,at least 75%,–
